# Results: PubChem BioAssay AID853 (Columbia University Molecular Screening Center, 2007)
# Out of some 47,000 compounds screened, about 200 (0.43%) were called active. This list was built around the results that the source calls inconclusive (neither active nor inactive); the mix of calls is not that of the screen.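 The calls were made as follows: active = inhibition of aggregate fluorescence above about 70%, also judged a hit by eye on the cell image (limit read from the data, passing the limit was not always enough); inconclusive = no rule stated for this call; inactive = not judged a hit on image review.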
# Test: clearance of mutant huntingtin inclusions, primary screen, imaging, HeLa Exon1htt(103Q)mCFP, confocal imaging (AID 853);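 also: cells exposed to compound for three days before fixation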
# Conditions: aggregate imaging, at 1.5 µM, hits give high values, zero = plate's median compound well
row,SMILES,inhibition
1,Cn1nnc(NC(=O)c2cccc(OCc3ccccc3)c2)n1,inactive: -1.3%
2,COc1cc(OC)cc(C(=O)NCc2cccnc2)c1,active: 75.2%
3,COc1ccc(C2(O)CCN(CC(=O)Nc3nccs3)CC2)c(OC)c1,inactive: 21.2%
4,CCOc1cccc2cc(C(=O)NCc3cccnc3)c(=O)oc12,inactive: -20.8%
5,COc1ccccc1NC(=O)CSc1nnnn1-c1ccc(C)cc1,active: 73.5%
6,COC(=O)c1sc2nc(-c3ccco3)ccc2c1N,inconclusive: 81.6%
7,CC(C)(C)OC(=O)N1CCC(C(=O)N[C@@H](Cc2ccccc2)C(=O)O)CC1,inconclusive: 74.6%
8,CCCCCC(=O)Nc1ccc2oc(-c3cccnc3)nc2c1,active: 70.6%
9,CCOC(=O)CCSc1nc(C)c2cc(C)c(C)cc2n1,inconclusive: 75.9%
10,Cc1n[nH]c(=O)nc1NCC1CCCO1 (stereo unspecified),active: 75.6%
11,CCn1c(=O)c(C(=O)NCc2cccnc2)c(O)c2ccccc21,inactive: -63.3%
12,CCOC(=O)c1ccc(NC2c3ccccc3C(=O)N2c2ccc(C)cn2)cc1 (stereo unspecified),inconclusive: 70.5%
13,O=C(Cc1cccs1)NCC1CCCO1 (stereo unspecified),inactive: 9.3%
14,CCOC(=O)c1c(NC(=O)c2csc(C)c2)sc(C(C)=O)c1C,active: 78.2%
15,Cc1ccc(Nc2nc(C(=O)N3CCC(C(=O)NCCN4CCOCC4)CC3)cs2)cc1,active: 73.8%
16,C=CCN=C(C)C1=C(O)CCC1=O,active: 76.7%
17,COc1ccc(NC(=O)C(Cc2ccccc2)NC(=O)c2ccco2)cc1OC (stereo unspecified),inconclusive: 78.7%
18,Cc1ccc(C(=O)OCC(=O)NCc2ccco2)cc1,inactive: 31.1%
19,CCOC(=O)N1CCN(S(=O)(=O)c2ccc3c(c2)OCC(=O)N3)CC1,active: 70.7%
20,Cc1cc(NC(=O)CCCSc2nc(-c3ccco3)cc(C(F)(F)F)n2)n(-c2ccccc2)n1,inactive: -39%
21,COc1nc(N2CCCCCC2)nc(N2CCCCCC2)n1,inactive: -34.3%
22,CCN1C(=O)c2cccc3c(NC(=O)c4ccc(S(=O)(=O)N5CCOCC5)cc4)ccc1c23,active: 71.7%
23,O=C1CC(c2ccncc2)c2cc3c(cc2N1)OCO3 (stereo unspecified),inactive: -7.1%
24,CCCOc1ccc2c(C)c(CC(=O)OC)c(=O)oc2c1,inconclusive: 96%

row,SMILES,inhibition
1,COc1ccc(N2CCN(C(=O)CSc3nnc(-c4cccnc4)n3-c3ccccc3)CC2)cc1,inconclusive: 76.2%
2,CC1(C)NC(=O)N(CC(O)COc2ccccc2C(=O)N2CCCCC2)C1=O (stereo unspecified),inactive: 4.1%
3,Cn1c(=O)[nH]c(=O)c2c1nc(Br)n2CCCSc1nc2ccccc2o1,inactive: 22.3%
4,CN(C(=O)c1ccc(C#N)cc1)c1nnc(-c2ccccn2)s1,active: 80%
5,O=c1[nH]c(SCC2CCCCO2)nc2ccccc12 (stereo unspecified),inconclusive: 78%
6,O=C(Nc1ccc2c(c1)OCO2)N1CCN(S(=O)(=O)c2ccc(Cl)cc2)CC1,active: 77.3%
7,COc1ccc(NC(=O)CSc2nc3c(c(=O)[nH]2)CCC3)cc1OC,inactive: -6.6%
8,Cc1cc2nnc(SC(C)C)n2c2ccccc12,inactive: 65.6%
9,O=C(CCC(=O)c1ccc[nH]1)c1ccc(Cl)cc1,active: 75.2%
10,O=C(NCCCn1ccnc1)NC(C(F)(F)F)C(F)(F)F,inconclusive: 81.5%
11,COc1ccc(S(=O)(=O)Nc2cc(C)cc(C)n2)c2ccccc12,active: 86.5%
12,COc1ccc(/C=N/N=C/c2ccc(OC)c(O)c2)cc1O,inconclusive: 93.4%
13,CC1CCc2nn(CC(=O)N3CCc4ccccc43)cc2C1 (stereo unspecified),inactive: 43.6%
14,Cc1ccc2[nH]c(=O)c(CN(Cc3ccccc3Cl)C(=O)N3CCOCC3)cc2c1,inactive: 23%
15,Cc1cc(C)c(C#N)c(=N)o1,inactive: -64.3%
16,Cc1nc(N2CCC(C)CC2)c2c(C)c(C(=O)O)sc2n1,active: 80.1%
17,O=C(Nc1ccc2c(c1)OCO2)c1nn(-c2ccccc2)c(=O)c2ccccc12,inconclusive: 75.7%
18,OCCSc1nc2ccccc2n1CCOc1ccccc1,inactive: 1.1%
19,C/C(=N\NC(=O)c1[nH]c2c([N+](=O)[O-])cc(C)cc2c1-c1ccccc1)c1cccnc1,inactive: -61.3%
20,O=C(O)c1ccccc1NS(=O)(=O)c1cccc2cccnc12,active: 77.4%
21,Cc1ccc(-c2nnn(CC(=O)N(Cc3cccs3)C(C(=O)NC3CCCC3)c3ccncc3)n2)cc1 (stereo unspecified),inconclusive: 74.4%
22,O=c1o[nH]c(-c2ccccc2)c1C1=NCCCCC1,inconclusive: 82.5%
23,COc1cccc(Oc2cncnc2-c2ccc(OC)cc2O)c1,active: 73.1%
24,Cc1c(C(=O)N2CCOCC2)sc2nc(-c3ccccc3)cn12,inactive: 52.8%

row,SMILES,inhibition
1,COC(=O)Oc1nsnc1N1CCOCC1,inconclusive: 85.2%
2,Cc1ccc(CNC(=O)C2C3C=CC(C3)C2C(=O)O)cc1 (stereo unspecified),inactive: -44.7%
3,COc1ccc(CCNC(=O)CSc2nc(N)c(C#N)c(-c3cccs3)c2C#N)cc1OC,active: 71.8%
4,Cc1cc(C)c(C#N)c(SCC(=O)c2ccc(Cl)cc2Cl)n1,inconclusive: 72.2%
5,CCOC(=O)c1c(NC(=O)CSc2nnc(-c3ccccc3C)n2C)sc(C(C)=O)c1C,active: 75.8%
6,CCC(=O)N1CCc2cc(S(=O)(=O)NCCC(=O)N3CCN(Cc4ccccc4)CC3)ccc21,inconclusive: 87.5%
7,CCc1ccccc1NC(=O)CSC1=C(C#N)C(c2ccc3c(c2)OCO3)C2=C(CCCC2=O)N1 (stereo unspecified),active: 72.8%
8,O=C(CCCNS(=O)(=O)c1cccc2nsnc12)N1CCCCC1,inconclusive: 89.6%
9,O=C(COC(=O)CCCN1C(=O)c2ccccc2C1=O)Nc1ncc(Cl)cc1Cl,active: 71.9%
10,C/C(=N\O)c1ccc2c3c([nH]c2c1)CCCC3,inactive: -22.8%
11,COc1cccc(C(C(=O)NCc2ccco2)N(Cc2ccco2)C(=O)Cn2nnc3ccccc32)c1 (stereo unspecified),active: 80%
12,CC(NC(=O)CSc1nc2c(cc1C#N)CN(C)CC2)c1ccccc1 (stereo unspecified),active: 73.3%
13,O=C(N/N=C/c1ccco1)c1cc(-c2ccccc2)n[nH]1,inconclusive: 96.2%
14,O=C(NCc1ccco1)c1cnn2c(C(F)F)cc(-c3ccccc3)nc12,inactive: -56.1%
15,COc1ccc(S(=O)(=O)Nc2ccccc2C(F)(F)F)cc1,inactive: 52.8%
16,Cc1ccc(S(=O)(=O)N2CCC(C(=O)NCCCOC(C)C)CC2)cc1,inactive: 12.8%
17,COC1=CC(=O)OC12CCCCC2,active: 70.3%
18,Cc1cc(C2C(C#N)=C(N)Oc3n[nH]c(C)c32)c(C)s1 (stereo unspecified),inconclusive: 87.2%
19,C[C@H](NC(=O)NCCc1ccccc1)C(=O)O,active: 70.9%
20,CC(C)(C)C(=O)NC(NC(=S)Nc1sc2c(c1C#N)CCCC2)C(Cl)(Cl)Cl (stereo unspecified),inactive: -39.7%
21,O=C(c1cccs1)N1CCN(S(=O)(=O)N2CCOCC2)CC1,inconclusive: 79.8%
22,Cc1cc(NC(=O)C2CC=CCC2C(=O)O)no1 (stereo unspecified),inconclusive: 74.5%
23,O[C@@H](CNC[C@H](O)c1ccccc1)c1ccccc1,inactive: -11.7%
24,COc1ccc(N(C(=O)Cc2cccs2)C(C(=O)NC2CCCCC2)c2cccn2C)cc1OC (stereo unspecified),active: 94.3%

# Arranged by SMILES length (low to high): five of the compounds above
row,SMILES,inhibition
16,C=CCN=C(C)C1=C(O)CCC1=O,active: 76.7%
19,C[C@H](NC(=O)NCCc1ccccc1)C(=O)O,active: 70.9%
9,CCOC(=O)CCSc1nc(C)c2cc(C)c(C)cc2n1,inconclusive: 75.9%
16,Cc1nc(N2CCC(C)CC2)c2c(C)c(C(=O)O)sc2n1,active: 80.1%
7,COc1ccc(NC(=O)CSc2nc3c(c(=O)[nH]2)CCC3)cc1OC,inactive: -6.6%

# The list goes on:

row,SMILES,inhibition
1,Clc1ccc(-c2nnc3n2CCCCC3)cc1,inactive: 25.6%
2,Cc1nc(NCCCn2ccnc2)c2oc3ccccc3c2n1,inactive: 9.1%
3,C[N+]1(CCNC(=O)/C=N/O)CCCCC1,inconclusive: 73.8%
4,CCCCS(=O)(=O)/C=C\C=C/S(=O)(=O)CCCC,inactive: 53.9%
5,CCOC(=O)N1CCN(CC(O)c2ccc3cc[nH]c3c2)CC1 (stereo unspecified),inconclusive: 93.4%
6,Cc1ccc2nc(C(C)O)[nH]c2c1 (stereo unspecified),inconclusive: 86.9%
7,COc1ccc(NS(=O)(=O)c2ccc(SC)cc2)cc1,active: 86.2%
8,O=C(CSc1nnc(CN2CCOCC2)n1-c1ccccc1)Nc1ccc(Cl)cc1,inconclusive: 75.4%
9,CCOC(=O)C(CO)(NC(C)=O)C(=O)OCC,inactive: -12.9%
10,COc1cc2c(cc1OC)C(c1cc3cc4c(cc3[nH]c1=O)OCO4)N(C(=O)C(C)C)CC2 (stereo unspecified),active: 84.4%
11,O=C(NC12CC3CC(CC(C3)C1)C2)N1CCC(O)CC1,inactive: -59.1%
12,CC(C)(C)Oc1ncc(Br)c(OC(C)(C)C)n1,inconclusive: 81.1%
13,COc1ccc(-c2[nH]ncc2Oc2ccccc2OC)c(O)c1,inactive: -75.7%
14,O=C(c1ccco1)[C@@H]1[C@@H]2C(=O)N(c3ccccc3)C(=O)[C@@H]2C2c3ccccc3C=CN21 (stereo partly specified),inactive: -2.1%
15,Cc1cc(NC(=O)COC(=O)c2cccc(S(=O)(=O)N3CCOCC3)c2)no1,inconclusive: 75.5%
16,Cc1ccc(CSc2ncccc2C(=O)O)cc1,inconclusive: 71.2%
17,CCOc1cc(C2C(C#N)=C(N)OC(C)=C2C(C)=O)c(Br)c(Br)c1OC(C)C (stereo unspecified),inactive: -101%
18,COc1ccc(S(=O)(=O)N2CCCC(C(=O)NCc3ccncc3)C2)cc1 (stereo unspecified),inactive: 46.9%
19,COc1cc(N2CCCC2)c(OC)cc1/C=c1/sc2nc3ccccc3n2c1=O,inconclusive: 89.9%
20,CC(=O)Nc1ccc(S(=O)(=O)N2CCN(C34CC5CC(CC(C5)C3)C4)CC2)cc1,inactive: 6.4%
21,CCCC1C2CN(C(C)C)CC=C2C(C#N)=C(N)C1(C#N)C#N (stereo unspecified),inactive: -17.9%
22,CCn1c(SCC(=O)N2CCCc3ccccc32)nnc1-c1cccs1,inactive: 5%
23,CCN(CC)CCNC(=O)c1ccccc1C(=O)c1ncc[nH]1,inconclusive: 70.5%
24,O=C(CN1C(=O)CSC1=O)N1CCc2ccccc2C1,inactive: 42.9%
